# Data reported in article PMC12370185.
# The other results are listed elsewhere or left out.
# Experiments:
# Assay in all cases: EMSA with sequencing
# Settings in all cases: 10 mM Tris-Cl pH 7.5, 50 mM NaCl, 1 mM DTT, 0.25 mg/ml BSA, 2 mM MgCl2, 0.025% Nonidet P-40, 5% glycerol; 28 nM nucleosome library; 10 min on ice then 30 min …; high values mean tight binding; double strand, one strand shown
# [1] = system: KLF4 + histone octamer
# [2] = system: OCT4 + histone octamer
# [3] = system: SOX2 + histone octamer
# [4] = system: c-MYC + MAX + histone octamer
Sequence,binding signal (log2 relative supershift) [1],binding signal (log2 relative supershift) [2],binding signal (log2 relative supershift) [3],binding signal (log2 relative supershift) [4]
GATGGACCCTATACGCGGCTACGAAACTGATGAGGGCTGGGCGTCTCATTTACATAAGGTGTGAATTTCTGGTACCTCCACCCCGTCCTGCTAGTGTACATGTGGGCCCTTAGCTTGAGTTACTCCATAATGCTTTGTTCCCCTTACTGCACATGTGTTAGGGGATGGAATTTTCCATTGTGGCCATGTCTGGGCAAGTCATCTCTGTAATGCCAGTCGGATAGTGTTCC,2,1.07,1.24,0.115
GATGGACCCTATACGCGGCGTCCCTACAATGGGCAGGGCTCTGTGTTGGTTTTTCATCCCATTTTGGCAATGAATAGGTACTGAAGACTCTCCCGGAACAGACTGCATCAAATGGTGATTGTTATACACTCAAGTGGATTCCTTCCTTCCTTTATCATGCAATCAGTGCAGATTCTCAGTTCATATCTGTCCCTGGAGTCTTACTCCACCTGCCAGTCGGATAGTGTTCC,2.67,0.115,1.2,0.397
GATGGACCCTATACGCGGCTACACAGGATGTTACTATTACTTAACCTTGGGCAGAGGGAGAACTGCACACCCACACCCCTGTTAAGTTCCTTTTAGCAAACACCAGCCCCCACTGCCTGAAACTCATCTTGGTCATGCCCAGACATGATGCTACAGACCTTCAGAGAAAGAGGAAGCCAAATATTTAGCTCTCTCTGCGGTCCCTGGCTCTGCCAGTCGGATAGTGTTCC,1.95,0.277,0.447,0.332
GATGGACCCTATACGCGGCGGGCTCACTCACATGTGAGTGTTGGCTGGCTGTGGTCTAATCTCAGATAGCCTCAGCTGGGATATCTAAAGCGATTCAGCTCTGATCCATGTGTCTCTAGTAACAAGTCAGGGCTCGTTCTCATAACCAAGGCAGAAAGCAAACAAGCCCAGGCATACATACACTTTTCTTTTCTGATTGTATTATGTTTATGCCAGTCGGATAGTGTTCC,0.187,0.706,1.61,0.165
GATGGACCCTATACGCGGCCTAGGGCCTTGGCAGGCCTCTGTGTGCTGTGATAATCACACCCTGAAGATTATTATGACATTGGAGGCATGCCCGGTCTGGCTCCAGACAAGGTGGTGCATGCAATATCATGGAGCTGCAGCAGTGTCACTTAGCCACATGTAGGGCAGAATGATGCTAGGCATACCCTGACAGATCTCTGGGTGACATAATGCCAGTCGGATAGTGTTCC,2.27,1.11,0.905,1.18
GATGGACCCTATACGCGGCCTGGGAGGGGAGGAGGGGAAGGAAGGAGAGCTAGAGGCCAGGGCAGAAAGCCAACAGCTGGCTTGGACGGGGCATTGTGTGATTTGGAAGGTGCCATGTGTCCCAGGGGAGTGGCATTTTCACCTCCAACCTCCTCTCTGCTCATCTGGACCCCACCCCTCCCCTTTAGCTGGCTCCACACTCCCTCCCTGTGCCAGTCGGATAGTGTTCC,2.82,0.316,0.288,0.414
GATGGACCCTATACGCGGCTATGTGTGAGAATGTGTAGTTGTGTGCACAAGTGTGTGGGTGTCAGAGAGTGTGTGTGAGTCTGGTGTGTGCATGCATGTGACTCCATGTGGTGTGTGCATGCATGCGTGGGTGTGCCATGGGTGGAGTGTGTATGCAGGTGTATGAATATGTCCATGTGTGTGAGGGTGAGTCTGTGGTGCGTTTGTGCATGCCAGTCGGATAGTGTTCC,1.86,0.0555,0.525,0.823
GATGGACCCTATACGCGGCGTCCCTTACCCCTCTACCCACTCACCCTTTAACTGTGCTTCTGTGTTTGTGTTTCTGTATATACCTGGGTGTATGCATATGCAGCAGGGTGGGTGTATGTACATATACAACCATTTGAGAAGCTGCATAGTGCCGTGTCTAGTGGTGTAAATCTACATTGGTGTGTACAGAATTGTATCTACAGCATGTGGTGCCAGTCGGATAGTGTTCC,1.5,0.00821,0.246,0.827
GATGGACCCTATACGCGGCATAAGGAACAAGAATTAAGTAATTGGGAAGGGCCCTGGATGCTCAGGCCACACCCACATGGGAATACCTGCCCCACATGGAGGCTCAGGCCAGCTCCACCAATCACCAATCAGCTCCTCCTCTTTCCCTAAATCGGCCTTCTCCGTCCCTCTTAGCCTATCACATTGCAAGCTCCACCTCTATTCCACGTTTGCCAGTCGGATAGTGTTCC,2.65,0.329,0.499,0.739
GATGGACCCTATACGCGGCTTCTCTTTACAGCAACCTGTGAAATAGAGATGGGGGTGGAAGAATGGAGATTGCATAGGGCTGGAGCTATTGACACTGAGAGCATCAGCTCAGCCAAAGAATCTTTTTCCTCTGGCATTTCCTGAAGGACAGGCAGACTCTTTGTTATGTGCATACATCAATTCACACAAGTGTGAGCACATACCCTTTGATGCCAGTCGGATAGTGTTCC,1.3,0.791,1.63,0.0205
GATGGACCCTATACGCGGCTTCTGAAATTCTTCTTCTGAAAGTTGGGTGTGCCTTGTGCGGTGCATGTGCATATGTGTAGGTACATTATGCACGTGGGTGTGTGTGGGTGTGGCATACTGTTCTCCTGAAGGCACACTTTCTACACTGTTCAGGGGAGGGGAATGATAAAGCCACTTTTTCTCAAGGCAGATGGTATGAAATCCATATTCTGCCAGTCGGATAGTGTTCC,2.17,0.231,0.155,0.341
GATGGACCCTATACGCGGCCTAATGGTTTTACATAGTGTAATCTGCACTTCAAAATAGCGAAGGGAAGCCCTACCTCATTATTCTACTTTTCCAGAATTCTCCTGGCTATTCCAGGCTGCATGTTTACCTTAACCTTCCCTGTGATGTCTTCATGCCGTTGTCTTCTTATGCAAGAATAAGGTACGTCTTTCCATCCACTCACGTCTATTTGCCAGTCGGATAGTGTTCC,1.05,0.595,0.675,0.575
GATGGACCCTATACGCGGCACCTCAAGTGAATAAATTGACCTCGAATGACACAACCATAATCTACTTTTAGATGAAAGGCAAGGGATTTTGGTGGAGCTTGAGGTGGGGGGTGGCTGCGGTAATGTAACTAAACTGCATTCTCAAGCGGATTTGGCCCCGTATTGCACTTTGCATGCAAATGAGCCTGTGTTATTATTATTAATGTTATTTGCCAGTCGGATAGTGTTCC,0.686,0.859,0.725,0.0939
GATGGACCCTATACGCGGCCACATTCTGGGTTGTCTTATTACATAACAGTGATTTGTACATGAATGGCTACCACCAATGCTGATGGGAGCTACCAGGCTGCAATGTCCTGCCCACCCAGCACTGCATGTGCTGCCATATTCATAGCTGCCCTTAAGGTCCAAGGTAATGCTTTCTGGTAATAACTCAGTGCAAACAAAATGTTGATGTGCTGCCAGTCGGATAGTGTTCC,0.419,0.0981,0.202,0.277
GATGGACCCTATACGCGGCTCTACTCCCCTGGCACATAGACAGGGTTCAGTAACTGCATGTTAAATCAGCGGTGATGATGATGATGGTGACAATGACAGTTGCAGCAGCTATCCAGCACATGGCCCTTGCCATGGGTGTGGCCACAGTGCTAAGAATCTTCATTTAACTCTTTTAACCCTCACGGAAATCCTCGCAGGTGTGTCCTGTTGTGCCAGTCGGATAGTGTTCC,2.53,0.332,0.436,0.408
GATGGACCCTATACGCGGCTGCCTTTGTCCTTTGGTGGCCACGATATCTTCATTGGAAGCGTCTATTGCTGTCATTATTTCTAATTGAAATCATCCTCTACCTCCACACCCTTCCACGAAGGAAACATGGCTTTTATCTTTGTCTTGCACATGCACACAACAGAGGGAGGGAGAATAATTTGCTATTTGCACTTTCAATAATAAAATAGCTGCCAGTCGGATAGTGTTCC,1.71,0.749,1.73,0.364
GATGGACCCTATACGCGGCTCCTAGGAAGAGCTCCATGGCTCCCTGACTTGCTCAACTGTTTTAAACCCCCACCCCACATGGAATAAGCACACTTCACCATTCTCTCACAACAACAATTAAGTCAACTTATCTTTGAATAAGTAGCTGGGGGTGGCGGGGACACACCCCTGAAGTGTGGGTTTAGGTTTGTTTGATTGGGGCGTGTGCTGTGCCAGTCGGATAGTGTTCC,2.27,0.762,0.985,1.07
GATGGACCCTATACGCGGCGCAGCTCACAGTATGTTGAAACAAGCTGCTAAGGGGCACAGAGGTGGAGAGCGAGTAGGTTTGTGTGTGCAGATGGGACAAGGTGGGGACGTGAGAAGAAAGGGAGCTCAGGCCACATGGCAGTGGACACTGAGTGAGAATGCTGCCAGGTTATACAGACCCACCCTAGAGTTGGCTTGCTCATTTGTAAATGCCAGTCGGATAGTGTTCC,1.97,0.449,0.28,0.345
GATGGACCCTATACGCGGCCCTTTCTGCCCAAAGCAGTGTAAGGGGAGTGGTCAGGGGATGTAGAATTAGAGGCACATGGTATGATATCACTGGAACTACCCAGAGAGCACATCTCACTGACCACACCCAGCCATCCCCATTCACATTTTCTCATGCCTTACCACCTCCTCCTAGCTGTATACCTCTAGTTTGATAACTATTTTTCCTCCTGCCAGTCGGATAGTGTTCC,2.49,0.285,0.337,0.384
GATGGACCCTATACGCGGCTAGAACCAGAACTAGCTTAACATGGCATTTAAAACGTAACATAAAGATGCATAACAATGAGATGCCACTTCACACTTATCAGAATGGCTGAAATCCAAAACACTGACACCAATGCTGGCCAAGATGTGGGACAACAGGAATGCTGCTTCATTGCTGGTGGGAATGCAAACTGATACTGCCCTTTGGAAGAGTGCCAGTCGGATAGTGTTCC,1.71,0.247,0.837,0.337
GATGGACCCTATACGCGGCCCATTTATTAATGTTTAAAAACATGCAAAACAATATGCATATATACAGACTGTGTATTAACAATGTTTAAAAATGCATGGGCATGTTAAACACCCGGGGAGTGGCTGGGGAGAGAAGGAGGGAAAAGGGATTGGAGTTGGGAGGGGTGGTACACGGTGGGTGTCAACTGTAACAAACTACTACAAAAAGAGTGCCAGTCGGATAGTGTTCC,2.26,1.31,1.36,0.191

# A run of entries taken from the entries so far, for reference:
Sequence,binding signal (log2 relative supershift) [1],binding signal (log2 relative supershift) [2],binding signal (log2 relative supershift) [3],binding signal (log2 relative supershift) [4]
GATGGACCCTATACGCGGCACCTCAAGTGAATAAATTGACCTCGAATGACACAACCATAATCTACTTTTAGATGAAAGGCAAGGGATTTTGGTGGAGCTTGAGGTGGGGGGTGGCTGCGGTAATGTAACTAAACTGCATTCTCAAGCGGATTTGGCCCCGTATTGCACTTTGCATGCAAATGAGCCTGTGTTATTATTATTAATGTTATTTGCCAGTCGGATAGTGTTCC,0.686,0.859,0.725,0.0939
GATGGACCCTATACGCGGCCACATTCTGGGTTGTCTTATTACATAACAGTGATTTGTACATGAATGGCTACCACCAATGCTGATGGGAGCTACCAGGCTGCAATGTCCTGCCCACCCAGCACTGCATGTGCTGCCATATTCATAGCTGCCCTTAAGGTCCAAGGTAATGCTTTCTGGTAATAACTCAGTGCAAACAAAATGTTGATGTGCTGCCAGTCGGATAGTGTTCC,0.419,0.0981,0.202,0.277
